According to PMC3738441:
Results are given in words; binding and its absence hold for the method and conditions named. In cells and extracts the contact can be indirect. Some entries that bind do so weakly or less than the wild type. For some assays here: Tags and fused reporters may be left off the sequences shown.

Tests used:
Assay in all cases: co-IP; S. pombe cell lysates made by glass bead beating; GFP-trap or RFP-trap agarose beads to precipitate YFP- or mCherry-tagged proteins; Atg5-Atg16 tested in wild-type, atg12Δ and atg18aΔ cells
[1] = target: T1, Atg6-YFP (S. pombe) (UniProt P87117)
T1 sequence: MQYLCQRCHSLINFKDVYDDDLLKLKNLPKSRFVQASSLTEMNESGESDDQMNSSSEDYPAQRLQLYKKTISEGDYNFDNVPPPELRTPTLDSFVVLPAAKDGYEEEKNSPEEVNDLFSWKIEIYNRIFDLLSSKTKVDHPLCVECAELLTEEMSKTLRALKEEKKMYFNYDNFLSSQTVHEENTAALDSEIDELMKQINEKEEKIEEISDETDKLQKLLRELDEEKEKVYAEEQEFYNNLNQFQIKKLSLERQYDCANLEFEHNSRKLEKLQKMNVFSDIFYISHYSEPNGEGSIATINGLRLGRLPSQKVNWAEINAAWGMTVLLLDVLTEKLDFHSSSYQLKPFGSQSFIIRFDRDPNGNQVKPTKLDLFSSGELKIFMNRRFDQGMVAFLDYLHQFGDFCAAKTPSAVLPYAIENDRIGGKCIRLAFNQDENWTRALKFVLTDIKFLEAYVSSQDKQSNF

[2] = target: T2, Atg18a (S. pombe) (UniProt Q9HDZ7)
T2 sequence: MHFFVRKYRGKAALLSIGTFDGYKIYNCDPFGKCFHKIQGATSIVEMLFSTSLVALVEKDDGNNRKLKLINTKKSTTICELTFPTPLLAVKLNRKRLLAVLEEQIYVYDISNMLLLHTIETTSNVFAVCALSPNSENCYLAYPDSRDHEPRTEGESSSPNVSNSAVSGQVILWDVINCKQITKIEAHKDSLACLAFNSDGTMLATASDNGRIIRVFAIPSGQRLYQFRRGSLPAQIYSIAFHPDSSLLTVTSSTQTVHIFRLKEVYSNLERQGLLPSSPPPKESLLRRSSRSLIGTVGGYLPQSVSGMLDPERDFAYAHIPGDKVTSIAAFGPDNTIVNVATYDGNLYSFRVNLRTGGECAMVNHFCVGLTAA

[3] = target: T3, Atg5 (as used in the reciprocal co-IP with Atg18a, Figure 4D) (S. pombe) (UniProt O74971)
T3 sequence: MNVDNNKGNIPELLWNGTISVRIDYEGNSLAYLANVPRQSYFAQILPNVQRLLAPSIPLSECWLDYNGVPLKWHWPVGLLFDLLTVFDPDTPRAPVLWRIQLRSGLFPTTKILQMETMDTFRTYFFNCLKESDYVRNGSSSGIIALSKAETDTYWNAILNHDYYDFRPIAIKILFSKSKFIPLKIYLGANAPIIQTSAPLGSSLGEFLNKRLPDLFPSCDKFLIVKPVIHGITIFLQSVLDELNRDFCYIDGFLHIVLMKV

[4] = target: T4, Ctl1 (S. pombe) (UniProt O74441)
T4 sequence: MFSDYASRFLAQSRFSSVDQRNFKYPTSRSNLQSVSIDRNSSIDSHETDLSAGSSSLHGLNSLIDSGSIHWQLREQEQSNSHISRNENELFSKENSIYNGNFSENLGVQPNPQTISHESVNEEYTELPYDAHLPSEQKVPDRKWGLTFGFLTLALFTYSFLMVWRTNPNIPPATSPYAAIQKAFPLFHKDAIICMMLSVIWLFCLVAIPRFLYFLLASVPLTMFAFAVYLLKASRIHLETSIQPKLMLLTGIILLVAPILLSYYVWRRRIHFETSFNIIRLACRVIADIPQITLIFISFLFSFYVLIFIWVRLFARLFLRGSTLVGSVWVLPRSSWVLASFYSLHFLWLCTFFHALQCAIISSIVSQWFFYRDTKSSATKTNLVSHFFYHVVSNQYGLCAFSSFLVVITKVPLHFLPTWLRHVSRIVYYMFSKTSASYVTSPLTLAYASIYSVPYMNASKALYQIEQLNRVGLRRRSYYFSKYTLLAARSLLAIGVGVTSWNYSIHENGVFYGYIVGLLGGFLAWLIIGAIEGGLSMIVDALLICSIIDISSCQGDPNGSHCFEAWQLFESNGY

[5] = target: T5, Atg9 (S. pombe) (UniProt O74312)
T5 sequence: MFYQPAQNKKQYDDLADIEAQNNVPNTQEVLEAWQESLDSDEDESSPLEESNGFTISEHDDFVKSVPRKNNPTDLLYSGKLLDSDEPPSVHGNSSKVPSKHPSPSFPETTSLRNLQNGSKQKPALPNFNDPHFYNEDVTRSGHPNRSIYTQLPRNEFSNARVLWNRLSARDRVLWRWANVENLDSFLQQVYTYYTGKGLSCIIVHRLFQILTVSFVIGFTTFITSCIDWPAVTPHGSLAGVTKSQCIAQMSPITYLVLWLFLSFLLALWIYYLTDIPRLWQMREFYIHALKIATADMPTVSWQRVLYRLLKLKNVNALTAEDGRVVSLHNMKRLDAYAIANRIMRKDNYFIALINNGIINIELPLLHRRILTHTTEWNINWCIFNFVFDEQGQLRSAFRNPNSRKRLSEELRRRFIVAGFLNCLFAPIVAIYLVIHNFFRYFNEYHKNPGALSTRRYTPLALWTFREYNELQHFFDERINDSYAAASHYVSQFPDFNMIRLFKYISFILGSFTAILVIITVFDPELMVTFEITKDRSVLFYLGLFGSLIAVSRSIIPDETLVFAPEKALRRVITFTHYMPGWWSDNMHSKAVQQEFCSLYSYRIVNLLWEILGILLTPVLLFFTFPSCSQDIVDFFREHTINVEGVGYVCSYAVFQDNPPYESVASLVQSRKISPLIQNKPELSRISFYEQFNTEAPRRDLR

B1: Atg14-Myc (protein, UniProt O42862 1-390)
chain: MLHVNKCQLCETRRPSICESCLKKQLYDFYHKRDEFSRDIESELEKVAKLKSESFSLKGKITQKEELTYRLQNLAASLNEKKSLSCDLHSRKQLIEDDLSNRKKSINIASQKLAGLSHSTSDYFSKEYLTAYRRSELLQNKLHEYQKKLITRVLDMYQLHWQRDLVLNTQGCTQKSAQMGSEFNPDSIDSSLAYRLSKLSMGNSKSDLSHSDNETGHFYSNFFSQVMELNASVTISGIPVCIRSKEKMFLNPDCALTLSFICIFLAQYTSIPLPCPLQLPSPDQKPMTSFSSEQMLYIMYNIVWISWNCGIFSFPRGITQSQLFELMQYTGFWLVQLRTKPLTSQKPDWHYKMGMDFDLFHRLYLARLPIPINYSSLRSRSSSKPYQLIS
[1]
  binding: binds

B2: Atg5 (as used in the reciprocal co-IP with Atg18a, Figure 4D) (protein, UniProt O74971 1-261)
chain: T3 sequence
[2]
  binding: binds

B3: Atg18a (protein, UniProt Q9HDZ7 1-373)
chain: T2 sequence
[3]
  binding: binds

B4: Atg9 (protein, UniProt O74312 1-702)
chain: T5 sequence
[4]
  binding: binds

B5: Ctl1 (protein, UniProt O74441 1-574)
chain: T4 sequence
[5]
  binding: binds
